Results are given in words; binding and its absence hold for the method and conditions named. In cells and extracts the contact can be indirect. Some entries that bind do so weakly or less than the wild type.
Biological target: peroxisome proliferator-activated receptor-γ (human (endogenous in primary chondrocytes)) (UniProt P37231)
Assay: co-IP; endogenous proteins of human chondrocytes treated with 10 μg/ml poly(I:C), pretreated with or without the p38 MAPK inhibitor SB202190; lysed in RIPA buffer (pH 7.4) with protease inhibitors; 20 μg total protein for immunoprecipitation; immunoblot

The chains behind the UniProt entries cited, without tags or fusion partners.
UniProt P37231: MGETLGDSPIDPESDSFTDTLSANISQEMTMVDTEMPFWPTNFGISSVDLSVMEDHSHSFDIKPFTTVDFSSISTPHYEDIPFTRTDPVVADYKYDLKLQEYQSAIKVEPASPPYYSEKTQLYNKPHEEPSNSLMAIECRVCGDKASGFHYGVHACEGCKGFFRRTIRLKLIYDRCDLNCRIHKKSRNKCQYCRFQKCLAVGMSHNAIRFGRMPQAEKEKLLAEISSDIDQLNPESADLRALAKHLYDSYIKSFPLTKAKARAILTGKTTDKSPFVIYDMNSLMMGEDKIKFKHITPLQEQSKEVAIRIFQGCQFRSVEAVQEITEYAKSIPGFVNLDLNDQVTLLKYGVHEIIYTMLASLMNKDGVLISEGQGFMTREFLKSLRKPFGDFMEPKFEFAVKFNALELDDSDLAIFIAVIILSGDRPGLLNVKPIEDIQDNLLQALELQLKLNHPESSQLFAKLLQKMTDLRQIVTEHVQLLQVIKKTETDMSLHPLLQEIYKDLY
UniProt Q04206: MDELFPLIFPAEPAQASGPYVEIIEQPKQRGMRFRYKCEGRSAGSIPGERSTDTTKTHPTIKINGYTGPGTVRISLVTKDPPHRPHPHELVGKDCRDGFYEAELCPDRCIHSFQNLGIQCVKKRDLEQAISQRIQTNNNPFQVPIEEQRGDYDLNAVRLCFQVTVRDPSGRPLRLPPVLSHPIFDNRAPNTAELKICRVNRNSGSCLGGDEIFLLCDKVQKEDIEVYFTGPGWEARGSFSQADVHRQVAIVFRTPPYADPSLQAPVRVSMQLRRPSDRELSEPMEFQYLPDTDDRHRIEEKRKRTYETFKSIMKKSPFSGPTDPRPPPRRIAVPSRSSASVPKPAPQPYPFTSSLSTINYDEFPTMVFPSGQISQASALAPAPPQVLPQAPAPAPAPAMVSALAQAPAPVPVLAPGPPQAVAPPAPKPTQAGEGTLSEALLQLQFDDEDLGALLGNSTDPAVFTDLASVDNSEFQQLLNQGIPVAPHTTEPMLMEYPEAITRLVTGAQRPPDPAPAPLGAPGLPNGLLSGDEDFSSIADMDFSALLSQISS

binding: binds
Substance: p65 (from UniProt Q04206 1-551)

— paper PMC5775407
